No constants are given. Whether binding was seen depends on the method and setting. In cells and extracts the contact can be indirect. Some results given as binding are weak or reduced against the parent protein; the word gives no strength.
Target: p53 (mouse (endogenous in C3H/10T1/2)) (UniProt P02340)
Assay: co-IP; 1x10^7 cells lysed in IP lysis buffer; p53-specific antibody overnight at 4 C; Protein A/G magnetic beads; HMGA1 detected by blot; triplicate experiments

- binding: binds
B1: High mobility group A1 (HMGA1) (protein, UniProt P17095 1-107)
chain: MSESGSKSSQPLASKQEKDGTEKRGRGRPRKQPPVSPGTALVGSQKEPSEVPTPKRPRGRPKGSKNKGAAKTRKVTTAPGRKPRGRPKKLEKEEEEGISQESSEEEQ

Reference: article PMC12681744
